These are yes or no findings as the source states them, for the method shown. In cells and extracts the contact can be indirect. Some entries that bind do so weakly or less than the wild type.

Sequences of proteins named here, by UniProt entry; tags and fusion partners are left off.
UniProt Q8N1W1: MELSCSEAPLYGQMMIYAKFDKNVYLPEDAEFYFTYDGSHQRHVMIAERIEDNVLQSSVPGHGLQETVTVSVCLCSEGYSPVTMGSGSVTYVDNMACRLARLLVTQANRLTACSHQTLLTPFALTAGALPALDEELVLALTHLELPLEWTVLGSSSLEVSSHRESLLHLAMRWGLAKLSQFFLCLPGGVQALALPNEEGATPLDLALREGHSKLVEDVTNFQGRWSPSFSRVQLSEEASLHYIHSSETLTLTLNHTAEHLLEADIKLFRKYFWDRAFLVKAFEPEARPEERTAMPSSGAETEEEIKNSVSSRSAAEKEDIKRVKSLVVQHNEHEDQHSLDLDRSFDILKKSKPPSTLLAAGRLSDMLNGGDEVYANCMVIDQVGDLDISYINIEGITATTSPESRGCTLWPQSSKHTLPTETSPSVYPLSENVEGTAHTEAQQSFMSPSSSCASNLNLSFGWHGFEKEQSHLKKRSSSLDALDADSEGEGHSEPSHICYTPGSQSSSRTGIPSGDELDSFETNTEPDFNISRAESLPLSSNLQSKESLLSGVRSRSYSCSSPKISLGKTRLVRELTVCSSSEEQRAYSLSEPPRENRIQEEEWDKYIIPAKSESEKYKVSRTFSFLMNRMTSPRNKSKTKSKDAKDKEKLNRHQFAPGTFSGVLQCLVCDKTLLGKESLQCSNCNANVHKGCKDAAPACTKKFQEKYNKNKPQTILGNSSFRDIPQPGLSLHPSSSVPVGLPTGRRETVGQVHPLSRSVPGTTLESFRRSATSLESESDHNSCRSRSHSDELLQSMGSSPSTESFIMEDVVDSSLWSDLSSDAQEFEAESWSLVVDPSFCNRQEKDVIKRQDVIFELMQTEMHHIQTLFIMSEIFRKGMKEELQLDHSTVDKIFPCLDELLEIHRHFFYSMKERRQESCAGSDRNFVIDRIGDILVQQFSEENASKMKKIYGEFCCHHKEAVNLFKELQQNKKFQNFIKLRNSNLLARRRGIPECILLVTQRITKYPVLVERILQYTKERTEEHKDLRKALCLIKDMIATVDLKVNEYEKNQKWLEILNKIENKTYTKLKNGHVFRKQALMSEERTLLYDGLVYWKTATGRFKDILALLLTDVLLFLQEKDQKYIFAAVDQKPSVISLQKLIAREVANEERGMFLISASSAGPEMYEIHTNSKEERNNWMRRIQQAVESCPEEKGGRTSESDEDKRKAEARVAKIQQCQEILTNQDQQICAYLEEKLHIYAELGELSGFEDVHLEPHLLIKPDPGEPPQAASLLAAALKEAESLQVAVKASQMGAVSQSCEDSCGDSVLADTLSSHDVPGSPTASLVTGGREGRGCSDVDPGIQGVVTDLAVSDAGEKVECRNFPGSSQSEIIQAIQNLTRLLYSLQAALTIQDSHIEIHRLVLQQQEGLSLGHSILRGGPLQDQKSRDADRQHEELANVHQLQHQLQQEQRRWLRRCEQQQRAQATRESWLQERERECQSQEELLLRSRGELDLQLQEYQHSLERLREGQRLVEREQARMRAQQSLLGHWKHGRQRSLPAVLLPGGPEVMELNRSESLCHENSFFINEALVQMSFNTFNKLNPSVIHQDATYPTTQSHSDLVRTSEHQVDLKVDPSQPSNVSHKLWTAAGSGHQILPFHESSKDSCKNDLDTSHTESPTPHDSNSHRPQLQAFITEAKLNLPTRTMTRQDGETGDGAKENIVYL

The experiment addresses Rho guanine nucleotide exchange factor (RGNEF) fused to the C-terminal half of ubiquitin and the RUra3 reporter (human) (UniProt Q8N1W1). The experiment can be described thus: split reporter; directed split-ubiquitin assay in yeast: RGNEF-CUb-RUra3 co-expressed with NUb (I/A/G variants) fusions; read by growth on plates lacking uracil and on 5-FOA plates, 500 µM CuSO4.

With “Rho guanine nucleotide exchange factor (RGNEF) fused to the C-terminal half of ubiquitin and the RUra3 reporter (from UniProt Q8N1W1 1-1705)”, the binding entry is “binds”.

The values above are taken from paper PMC7460592.
